In paper PMC9315497, “Structural Analysis of Ino2p/Ino4p Mutual Interactions and Their Binding Interface with Promoter DNA”:
A negative result means that nothing was seen under these conditions. Tags and fusion partners may be left off the protein sequences shown.

How the values were obtained:
Ino2pDBD WT = target: T1, Ino2pDBD WT (UniProt P26798); assay: EMSA; settings: Ino2p alone; 20 mM Tris-HCl pH 8.0, 100 mM NaCl (buffer B); EMSA 1.5 uM DNA, 1.5-150 uM protein, 1 h on ice; recombinant protein; residues 230-304; protein details: N-terminal His6; label: 5'-FAM on sense strand
T1 sequence (looked up): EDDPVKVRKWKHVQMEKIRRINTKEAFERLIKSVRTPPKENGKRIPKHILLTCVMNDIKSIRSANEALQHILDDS

Ino4pDBD WT = target: T2, Ino4pDBD WT (UniProt P13902); assay: EMSA; settings: Ino4p alone; 20 mM Tris-HCl pH 8.0, 100 mM NaCl (buffer B); EMSA 1.5 uM DNA, 1.5-150 uM protein, 1 h on ice; recombinant protein; residues 40-117; label: 5'-FAM on sense strand
T2 sequence (looked up): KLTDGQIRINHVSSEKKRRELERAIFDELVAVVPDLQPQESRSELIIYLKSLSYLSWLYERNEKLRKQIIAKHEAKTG

Q: Which results are given for “GAATTTTCACATGCAGATC (double strand) [19bp-FAM promoter DNA]”?
A: binding result (Ino2pDBD WT): no binding; binding result (Ino4pDBD WT): no binding
